Laboratory results as given in patent US10899790B2, “Method for modifying T cell population” (OSAKA UNIVERSITY, priority 2016, dated 2021).
For at least one compound, name, drawing or mass did not settle the structure.

Tested on: Healthy human-derived CD4+CD45RO+T cells
Experiment: Effect in vitro: CD62L and CD127 expression in cultured T cells by flow cytometry
Type: cell-based
Details: 20 μM; anti-CD3, anti-CD28, IL-2; vs DMSO control (FIG. 2)
Procedure: Healthy human-derived CD4^+CD45RO^+T cells (1×10^5) were cultured in the presence of anti-CD3 antibody (2 μg/ml), anti-CD28 antibody (2 μg/ml), IL-2 (20 IU/ml) and RDH10 inhibitors (Compound No. 16 (RDHI-032), Compound No. 17 (RDHI-033), and Compound No. 18 (RDHI-034)) (20 μM for each). In addition, DMSO was used as a control for the RDH10 inhibitor. After seven days […] resuspended in a fresh culture medium to which IL-2 was not added, and cultured for one more day. Thereafter, the expression of CD62L and CD127 in T cells was analyzed by flow cytometry. The culture solution used was X-VIVO15 to which AB serum was added to have a final concentration of 10%.

Compound: CC1(C)[C@@H](O)CC[C@]2(C)[C@H]3C(=O)C=C4[C@H]5C[C@@](C)(C(N)=O)CC[C@]5(C)CC[C@@]4(C)[C@]3(C)CC[C@@H]12 [RDHI-036, (2S,4aS,6aS,6bR,8aR,10S,12aS,12bR,14bS)-10-hydroxy-2,4a,6a,6b,9,9,12a-heptamethyl-13-oxo-1,2,3,4,4a,5,6,6a,6b,7,8,8a,9,10,11,12,12a,12b,13,14b-icosahydropicene-2-carboxamide]
- amplification of memory T cells (CD62L+CD127+T cells): tended to amplify memory cells
